Laboratory results from PMC5323164.
These are yes or no findings as the source states them, for the method shown. In cells and extracts the contact can be indirect. Some entries that bind do so weakly or less than the wild type.

Amino acid sequences for entries named in this document (tags omitted). Residues count along the entry.
UniProt Q9BZS1, residues 1-417: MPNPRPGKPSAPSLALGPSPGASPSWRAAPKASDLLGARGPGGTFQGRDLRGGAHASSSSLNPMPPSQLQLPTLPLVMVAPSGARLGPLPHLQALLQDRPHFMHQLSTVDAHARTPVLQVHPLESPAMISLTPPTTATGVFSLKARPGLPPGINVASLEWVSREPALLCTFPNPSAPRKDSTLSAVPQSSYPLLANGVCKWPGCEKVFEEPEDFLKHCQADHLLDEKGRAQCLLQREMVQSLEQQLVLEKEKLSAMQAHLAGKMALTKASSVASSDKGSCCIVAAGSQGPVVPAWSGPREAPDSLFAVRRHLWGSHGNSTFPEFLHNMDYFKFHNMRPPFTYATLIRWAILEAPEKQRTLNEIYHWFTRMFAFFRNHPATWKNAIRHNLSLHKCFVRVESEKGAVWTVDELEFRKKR
UniProt Q16665: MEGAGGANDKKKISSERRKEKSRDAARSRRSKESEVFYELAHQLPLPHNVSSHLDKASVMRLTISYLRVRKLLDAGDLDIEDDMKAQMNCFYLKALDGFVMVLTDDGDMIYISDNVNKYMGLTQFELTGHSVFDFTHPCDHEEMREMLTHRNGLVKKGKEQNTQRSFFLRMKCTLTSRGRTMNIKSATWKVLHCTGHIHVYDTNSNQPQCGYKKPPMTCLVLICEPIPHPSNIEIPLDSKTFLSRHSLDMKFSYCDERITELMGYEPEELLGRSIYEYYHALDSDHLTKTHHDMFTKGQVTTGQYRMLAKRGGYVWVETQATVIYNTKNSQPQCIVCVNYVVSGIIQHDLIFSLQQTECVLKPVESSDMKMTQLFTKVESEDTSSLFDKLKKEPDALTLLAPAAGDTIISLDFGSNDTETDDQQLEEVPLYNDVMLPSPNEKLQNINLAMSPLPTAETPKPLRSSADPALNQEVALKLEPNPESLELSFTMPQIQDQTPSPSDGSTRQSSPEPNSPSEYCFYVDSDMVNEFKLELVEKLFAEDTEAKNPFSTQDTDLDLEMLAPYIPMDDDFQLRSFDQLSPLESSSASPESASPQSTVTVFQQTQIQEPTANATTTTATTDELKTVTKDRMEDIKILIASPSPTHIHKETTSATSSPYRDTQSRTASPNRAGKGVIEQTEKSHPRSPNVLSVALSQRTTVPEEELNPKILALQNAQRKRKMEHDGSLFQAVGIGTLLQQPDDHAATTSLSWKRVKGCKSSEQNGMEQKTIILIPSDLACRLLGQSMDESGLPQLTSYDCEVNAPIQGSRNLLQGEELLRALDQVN

Columns and labels:
[1] = target: Foxp3 expressed from plasmid pCMV3-N-HA-Foxp3 (UniProt Q9BZS1); assay: co-IP; T24-P cells transfected with Foxp3 plasmid or control, with or without MG132; lysates immunoprecipitated with anti-Foxp3 antibody, western blot for Foxp3 and HIF-1α
[2] = target: forkhead box P3 (Foxp3) protein (human (endogenous in T24-B and HeLa)) (UniProt Q9BZS1); assay: co-IP; lysates of T24-B cells (the text also names HeLa) kept in normoxia or hypoxia (1% O2) for the indicated times; immunoprecipitated with anti-Foxp3 antibody, western blot for Foxp3 and HIF-1α

“Hypoxia-inducible factor-1 alpha (HIF-1α) protein (from UniProt Q16665 1-826)” was tested, and the binding [1] was “binds” and the binding [2] was “binds”.
